These are yes or no findings as the source states them, for the method shown. In cells and extracts the contact can be indirect. Some results given as binding are weak or reduced against the parent protein; the word gives no strength.
Molecular target: programmed death ligand‐1 (PD‐L1) (human (endogenous in MDA‐MB‐436 and OVCAR‐3)) (UniProt Q9NZQ7)
Test: co-IP; native IP: MDA‐MB‐436 or OVCAR‐3 cells treated 6 h with KMTR2 or IgG1 control ± ROCK1i (GSK269962); avelumab (IgG4‐Fc) added to the medium for 1 h at 4°C to hold surface PD‐L1; lysis in 20 mM Tris pH 7.5, 150 mM NaCl, 1 mM EDTA, 10% glycerol, 1% Triton‐X; anti‐human IgG4‐specific beads; blots for PD‐L1, CMTM6, ROCK1

Chains of the proteins cited; added tags and fusions are not shown. Residues count along the entry.
UniProt Q9NZQ7, residues 19-290: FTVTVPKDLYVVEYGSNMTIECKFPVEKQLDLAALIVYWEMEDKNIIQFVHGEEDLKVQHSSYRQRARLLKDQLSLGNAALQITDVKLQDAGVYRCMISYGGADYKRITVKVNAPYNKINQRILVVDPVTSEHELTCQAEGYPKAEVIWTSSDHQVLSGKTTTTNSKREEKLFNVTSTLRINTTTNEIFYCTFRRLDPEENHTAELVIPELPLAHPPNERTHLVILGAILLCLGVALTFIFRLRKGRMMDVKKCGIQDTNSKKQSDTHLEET

B1: CMTM6 (protein, UniProt Q9NX76 1-183)
chain: MENGAVYSPTTEEDPGPARGPRSGLAAYFFMGRLPLLRRVLKGLQLLLSLLAFICEEVVSQCTLCGGLYFFEFVSCSAFLLSLLILIVYCTPFYERVDTTKVKSSDFYITLGTGCVFLLASIIFVSTHDRTSAEIAAIVFGFIASFMFLLDFITMLYEKRQESQLRKPENTTRAEALTEPLNA
binding: binds
